Source: PubChem BioAssay AID1259405 (NCATS, 2018)
The whole screen tested about 50,000 reagents; below is a part drawn at random. About 4,000 of them (8%) were called active. 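Mouse siRNA library applied to hamster cells; one well for each siRNA.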 The numbers tell different reagents against one gene apart.

Assay: 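Knock-downs that lift recombinant protein yield in hamster ovary cells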 (primary screen)
Cell system: Chinese hamster CHO-K1 ovary cells with stable secreted eGFP expression
Knock-down reagent: single siRNA against mouse genes, 0.8 pmol siRNA per well (2 µl of 400 nM stock)
Timing: 3 days
Read-out: 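Percent of the per-plate non-targeting control median for intracellular GFP per well by laser scanning cytometry and for cell viability by ATP luminescence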
Scale: GFP, % of control: higher = more GFP per well, higher productivity; viability (ATP), % of control: higher = more viable cells (more ATP)
Rule for the call: 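a knock-down is called active if GFP reaches 120% or more of non-targeting control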

{"gene symbol":"Mocs2","reagent no.":1,"GFP, % of control":104,"viability (ATP), % of control":102,"outcome":"inactive"}
{"gene symbol":"Mocs2","reagent no.":2,"GFP, % of control":28,"viability (ATP), % of control":42.8,"outcome":"inactive"}
{"gene symbol":"Mocs2","reagent no.":3,"GFP, % of control":70.5,"viability (ATP), % of control":112,"outcome":"inactive"}
{"gene symbol":"Pcgf1","reagent no.":1,"GFP, % of control":68.6,"viability (ATP), % of control":74.6,"outcome":"inactive"}
{"gene symbol":"Pcgf1","reagent no.":2,"GFP, % of control":72.3,"viability (ATP), % of control":85.1,"outcome":"inactive"}
{"gene symbol":"Pcgf1","reagent no.":3,"GFP, % of control":73.4,"viability (ATP), % of control":81.3,"outcome":"inactive"}
{"gene symbol":"Ly6g5c","reagent no.":1,"GFP, % of control":116,"viability (ATP), % of control":74.7,"outcome":"inactive"}
{"gene symbol":"Ly6g5c","reagent no.":2,"GFP, % of control":80,"viability (ATP), % of control":35.5,"outcome":"inactive"}
{"gene symbol":"Ly6g5c","reagent no.":3,"GFP, % of control":83.3,"viability (ATP), % of control":49.9,"outcome":"inactive"}
{"gene symbol":"Gdpd3","reagent no.":1,"GFP, % of control":161,"viability (ATP), % of control":76.8,"outcome":"active"}
{"gene symbol":"Gdpd3","reagent no.":2,"GFP, % of control":92.3,"viability (ATP), % of control":106,"outcome":"inactive"}
{"gene symbol":"Gdpd3","reagent no.":3,"GFP, % of control":73.5,"viability (ATP), % of control":87.3,"outcome":"inactive"}
{"gene symbol":"Galt","reagent no.":1,"GFP, % of control":156,"viability (ATP), % of control":78,"outcome":"active"}
{"gene symbol":"Galt","reagent no.":2,"GFP, % of control":102,"viability (ATP), % of control":69.1,"outcome":"inactive"}
{"gene symbol":"Galt","reagent no.":3,"GFP, % of control":96.8,"viability (ATP), % of control":131,"outcome":"inactive"}
{"gene symbol":"Hoga1","reagent no.":1,"GFP, % of control":76.1,"viability (ATP), % of control":82.6,"outcome":"inactive"}
{"gene symbol":"Hoga1","reagent no.":2,"GFP, % of control":52.4,"viability (ATP), % of control":50.9,"outcome":"inactive"}
{"gene symbol":"Hoga1","reagent no.":3,"GFP, % of control":69.4,"viability (ATP), % of control":82.8,"outcome":"inactive"}

Part of the list above in another layout:
Ly6g5c #3
- GFP, % of control: 83.3
- viability (ATP), % of control: 49.9
- outcome: inactive

Gdpd3 #1
- GFP, % of control: 161
- viability (ATP), % of control: 76.8
- outcome: active
